Among the data in PubChem BioAssay AID2685 (National Center for Advancing Translational Sciences (NCATS), 2010) are cell number change and AC50 values, retold here.

The assay is described as follows: qHTS Assay for Lipid Storage Modulators in Drosophila S3 Cells.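 For cell number change: cells counted by Cell Tracker Red CMTPX staining in the red channel.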 The note with it: BODIPY lipid droplet fluorescence, 18-24 h; for cell number change: measured here: cell count max response, cells fed with added oleic acid. Put shortly:
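Drosophila S3 cells got compounds at several concentrations plus oleic acid (400 uM solution). Laser-scanning cytometry with 488 nm excitation read lipid droplets at 500-530 nm and cells at 575-640 nm. Percent activity was relative to 20 uM Triacsin C.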
On the technique in general: Quantitative high-throughput screening tests each substance at several concentrations.

[1] abbreviates: measured here: lipid fluorescence (Fed channel) AC50, cells fed with added oleic acid.
[2] abbreviates: measured here: cell number channel AC50, cells fed with added oleic acid.

A word on the AC50: it is the concentration giving half of the maximal activity seen. A higher AC50 goes with weaker potency.

The other results are listed elsewhere or left out. Further columns of the screen follow, without active or inactive calls. The list favours compounds with an active or inconclusive main result. Potencies come from curve fits of mixed quality, noted in brackets.

`Cc1ccc(CONC(=O)/N=C/N(C)C)cc1`: the cell number change was 11.5%. The AC50 under setting [1] is 0.651 µM [rising, full curve].
On to `CN(C(=O)c1ccc(Br)o1)C1CCCCC1`, for which the cell number change was -1.49%.
For the compound `Cc1ccc(-c2csc(-c3c[nH]c4ccccc34)n2)cc1`, the cell number change is 6.5%. Also, under setting [2], the AC50 was 0.461 µM [rising, partial curve]. Moreover, the AC50 under setting [1] was 0.146 µM [rising, full curve, poor fit].
Turning to `C=CCn1c(SCC(=O)Nc2ccc3c(c2)OCO3)nnc1-c1ccccc1OC`, the cell number change worked out at 67.8%. Further, the AC50 under setting [2] was 0.651 µM [rising, partial curve]. The concentration at half-maximal activity (AC50) under setting [1] was 0.651 µM [rising, partial curve].
Take `Cc1ccc(-n2nc(C)c3c(C)c(CCC(=O)Nc4ccc(CN5CCCC5)cc4)c(C)nc32)cc1`: the cell number change was -8.01%.
The same measure, in the same setting: the value for `O=C(NCc1ccco1)c1nn2c(C(F)(F)F)cc(-c3cccs3)nc2c1Br` was 36.5%.
As for `CC(NS(=O)(=O)c1ccccc1)C1COc2ccccc2O1` (stereo not drawn), the cell number change is -9.31%. In addition, the AC50 under setting [2] was 6.51 µM [falling, single point]. The concentration at half-maximal activity (AC50) under setting [1] was 6.51 µM [falling, single point].
For `C/C(=C\c1ccc(Cl)cc1)C(=O)c1c(C)cc(C)[nH]c1=O`, the cell number change came to 5.96%. Besides, the AC50 under setting [1] is 29.1 µM [rising, single point].
On to `CN1CCN(C(=O)C2CC(c3c(F)cccc3Cl)=NO2)CC1` (stereo not drawn), for which the half-maximal activity concentration (AC50) under setting [1] was 6.51 µM [falling, single point].
Take `COc1ccc(C(=O)NCc2ccc(-c3nc4ccccc4s3)cc2)cc1OC`: the cell number change is -65.8%. Also, under setting [2], the AC50 was 29.1 µM [falling, single point]. Moreover, the AC50 under setting [1] is 0.146 µM [rising, full curve, poor fit].
For the compound `Cc1nc2ccccc2c2c1CC(C)S2` (stereo not drawn), the cell number change was -0.979%. Further, the AC50 under setting [1] is 0.517 µM [falling, single point].
Regarding `COC(=O)Nc1ncc(CN2C(=O)c3ccccc3C2=O)s1`, the cell number change turned out to be 2.04%. Further, the AC50 under setting [1] was 10.3 µM [rising, partial curve, poor fit].
Consider `c1ccc(-c2[nH]ncc2CN2CCN(Cc3ccc4c(c3)OCO4)CC2)cc1`, for which the cell number change came to 11.1%. For the same compound, under setting [1], the AC50 was 3.66 µM [falling, single point].
For the compound `CN(C)C(=O)COc1ccc(Br)cc1`, the cell number change was -70.8%. The concentration at half-maximal activity (AC50) under setting [2] is 25.9 µM [falling, partial curve, poor fit].
`CCOCCCn1c(-c2ccc(Cl)cc2)n[nH]c1=S`: the cell number change is 40.1%. In addition, the AC50 under setting [2] is 5.8 µM [rising, full curve, poor fit]. Moreover, the AC50 under setting [1] was 29.1 µM [falling, single point].
For the compound `COc1ccc(C(=O)c2c3ccccc3[n+]([O-])n2CCC(N)=O)cc1`, the AC50 under setting [1] was 29.1 µM [rising, single point].
For the compound `O=c1[nH]c(-c2cccnc2)nc2sc(-c3ccccc3)cc12`, the cell number change was -122%. Under setting [2], the concentration at half-maximal activity (AC50) is 20.6 µM [falling, partial curve]. For the same compound, the concentration at half-maximal activity (AC50) under setting [1] is 18.4 µM [falling, partial curve].
On to `CCS(=O)(=O)N1CCCC(C(=O)NCc2cccc(OC)c2)C1` (stereo not drawn), for which the cell number change was determined as 12.2%. Moreover, the half-maximal activity concentration (AC50) under setting [1] was 0.103 µM [falling, full curve, poor fit].
Regarding `CC(C)C(NC(=O)C(NC(=O)C1O[C@@H]2OC(C)(C)O[C@@H]2[C@H]2OC(C)(C)O[C@@H]12)C(C)C)C(=O)O` (stereo partly drawn), the cell number change is -3.17%. Besides, the AC50 under setting [2] is 5.8 µM [falling, partial curve]. In addition, the AC50 under setting [1] was 5.17 µM [falling, partial curve].
With `COc1ccc(CN(C)Cc2c(O)ccc3cc(Br)ccc23)cc1OC`, the cell number change worked out at 0.403%. Further, under setting [1], the AC50 is 0.146 µM [rising, full curve, poor fit].
With `Cc1ccc(S(=O)(=O)Nc2cccc3cccnc23)c([N+](=O)[O-])c1`, the cell number change was -47.8%. Moreover, the AC50 under setting [2] is 11.6 µM [falling, partial curve, poor fit]. Also, the half-maximal activity concentration (AC50) under setting [1] is 0.00461 µM [falling, full curve, poor fit].
For `Cc1c(C(=O)NCc2ccccc2)cnn1-c1ccccc1`, the cell number change was -1.09%. For the same compound, the AC50 under setting [1] is 0.116 µM [falling, full curve, poor fit].
Take `CN1CCN(c2ccc(S(=O)(=O)N3CCCCC3)cc2NC(=O)/C=C/c2ccc(Cl)c([N+](=O)[O-])c2)CC1`: the cell number change was -25%. The AC50 under setting [1] was 16.4 µM [falling, partial curve].
Take `NC(=S)N/N=C/c1coc2ccc(Cl)cc2c1=O`: the cell number change was -24.8%.
For `O=C1Nc2ccccc2N(O)N1c1ccc(Cl)c(Cl)c1`, the cell number change amounted to 15.1%. The half-maximal activity concentration (AC50) under setting [1] was 2.06 µM [rising, partial curve].
Regarding `CC(C)n1nccc1N(Cc1ccc(Br)cc1)S(=O)(=O)c1ccccc1`, under setting [1], the half-maximal activity concentration (AC50) was 35.5 µM [rising, single point].
In the case of `Cc1cc(NC(=O)c2ccc(Cl)cc2Cl)no1`, the cell number change is 12.6%. Further, the AC50 under setting [1] is 11.6 µM [rising, single point].
For `COc1ccc(N2CCN(c3nc4cc(C)ccc4cc3C=O)CC2)cc1`, the cell number change is -1.68%.
As for `O=C(Nc1ccccc1F)C1CCN(S(=O)(=O)c2cccnc2)CC1`, the half-maximal activity concentration (AC50) under setting [1] is 29.1 µM [rising, single point].
On to `Cc1ccc(NS(=O)(=O)c2ccc(/C=C/C(=O)O)cc2)cc1Cl`, for which the cell number change stood at 4.94%.
Turning to `Cc1nc(C)c(C(=O)O)c(-c2cccs2)c1C(=O)O`, the cell number change was -25.2%.
Take `COc1cccc(NS(=O)(=O)NC(=O)c2c(C)[nH]c3ccccc23)c1`: the cell number change was -19.5%.
Regarding `COc1ccc(/C(N)=N/OC(=O)C2CCC(=O)N2S(=O)(=O)c2ccc(C)cc2)cc1OC` (stereo not drawn), the AC50 is, setting by setting: under setting [2], 0.58 µM [rising, single point]; under setting [1], 14.6 µM [rising, partial curve].
For `O=C(c1cc(-c2ccccn2)nc2ccc(Br)cc12)N1CCN(S(=O)(=O)c2ccccc2)CC1`, the cell number change was 43.3%. Besides, under setting [1], the concentration at half-maximal activity (AC50) was 16.4 µM [rising, partial curve].
On to `Cc1[nH]c2ccccc2c1C(=O)C(=O)Nc1ccc2c(c1)OCO2`, for which, under setting [1], the half-maximal activity concentration (AC50) is 29.1 µM [falling, single point].
Consider `O=C(NCC1COc2ccccc2O1)c1cccc(S(=O)(=O)N2CCN(c3ccccc3)CC2)c1` (stereo not drawn), for which, under setting [2], the AC50 was 6.51 µM [rising, single point].
`CC(C)OC(=O)COc1cc(O)c2c(=O)cc(-c3ccccc3)oc2c1`: the cell number change was found to be 33.2%. The concentration at half-maximal activity (AC50) under setting [2] is 10.3 µM [rising, single point].
On to `CCOc1cc(Cl)c(NC(=O)c2ccco2)cc1OCC`, for which the cell number change amounted to 7.43%. For the same compound, the half-maximal activity concentration (AC50) under setting [1] is 0.651 µM [rising, full curve, poor fit].
For `Cc1cc(C)nc(N2CCCC(C(=O)Nc3ccc(F)cc3)C2)n1` (stereo not drawn), the cell number change is 13.4%.
In the case of `Cc1c(Cl)cccc1NC(=S)NC(=O)CCN1C(=O)c2ccccc2C1=O`, the cell number change was determined as 17.5%. In addition, under setting [1], the half-maximal activity concentration (AC50) was 3.26 µM [rising, full curve, poor fit].
Regarding `CC1CCN(S(=O)(=O)c2ccc(NC(=O)CN3CCCCCC3)cc2)CC1`, the cell number change was 27.6%. Further, under setting [2], the concentration at half-maximal activity (AC50) was 0.0164 µM [rising, full curve, poor fit]. The concentration at half-maximal activity (AC50) under setting [1] is 0.631 µM [falling, full curve, poor fit].
Consider `COc1ccccc1NC(=S)N(Cc1ccccc1)Cc1ccccn1`, for which the cell number change is -13.8%. Further, the AC50 under setting [1] is 13 µM [rising, partial curve, poor fit].
In the case of `COc1ccc(NC(=O)C2=Cc3ccccc3OC2)cc1`, the cell number change worked out at 28.2%. The concentration at half-maximal activity (AC50) under setting [2] is 0.259 µM [rising, full curve, poor fit].
Take `CCC(NC(=O)c1ccccc1NC(=O)c1ccccc1)C(=O)NNC(=O)CSc1nc2ccccc2o1` (stereo not drawn): the cell number change stood at 20.9%. The half-maximal activity concentration (AC50) under setting [1] is 6.51 µM [rising, partial curve, poor fit].
On to `Cc1ccc(Cc2cnc(N)s2)o1`, for which the cell number change was -4.64%. Besides, the AC50 under setting [2] was 0.146 µM [falling, full curve, poor fit]. The half-maximal activity concentration (AC50) under setting [1] was 2.06 µM [falling, single point].
For the compound `O=C(CCc1nnc2n(Cc3ccccc3Cl)c(=O)c3ccccc3n12)NCCCN1CCOCC1`, the cell number change came to 1.7%. Also, the AC50 under setting [1] was 20.6 µM [rising, partial curve].
Regarding `CCN1CCN(CCCNC(=O)CCC(=O)N2CCOc3ccc(Cl)cc32)CC1`, the cell number change is -2.02%.
As for `Cc1ccc(C)n1-c1ccc(C(=O)Nc2ccccc2)cc1`, the cell number change was determined as 13.1%. Also, the concentration at half-maximal activity (AC50) under setting [1] was 11.6 µM [rising, partial curve, poor fit].
As to `CCN(c1cccc(C)c1)S(=O)(=O)c1c(C)[nH]c(=O)[nH]c1=O`, the cell number change was -39.9%. Further, under setting [2], the AC50 was 4.11 µM [falling, full curve]. The concentration at half-maximal activity (AC50) under setting [1] is 14.6 µM [falling, partial curve].
On to `O=C(Cc1ccccc1)NCC(=O)N1CCN(c2ccccc2)CC1`, for which the cell number change is 13.3%.
On to `Cc1ccc(-c2nnc3ccc(SC(C)C(=O)O)nn23)cc1` (stereo not drawn), for which the half-maximal activity concentration (AC50) under setting [2] was 0.206 µM [falling, full curve, poor fit] and the AC50 under setting [1] is 0.651 µM [falling, single point].
For `O=C(C1CCCN(S(=O)(=O)c2ccccc2)C1)N1CCCCCC1` (stereo not drawn), the cell number change is 32.6%. The AC50 under setting [2] was 10.3 µM [rising, partial curve, poor fit]. Besides, the AC50 under setting [1] was 0.0231 µM [rising, full curve, poor fit].
In the case of `Cc1ccc(NC(=O)COC(=O)Cc2c[nH]c3ccccc23)cc1C`, the cell number change amounted to 18.5%. In addition, under setting [1], the AC50 was 29.1 µM [rising, single point].
`COc1cc(C(=O)N/N=C/c2ccc(OC(=O)c3ccccc3Cl)c(OC)c2)ccc1O`: the cell number change was -31.7%. The AC50 under setting [2] is 7.31 µM [falling, partial curve]. Besides, the AC50 under setting [1] was 13 µM [falling, partial curve].
Consider `CN(C)C(=O)c1nnsc1Sc1ccc(Cl)cc1`, for which the cell number change is 60.4%. Also, the concentration at half-maximal activity (AC50) under setting [2] was 4.11 µM [falling, single point]. In addition, under setting [1], the AC50 is 1.3 µM [falling, partial curve].
For the compound `CCOc1cccc(-c2nnc3sc(-c4ccc(C)cc4)nn23)c1`, the cell number change came to 6.59%. Moreover, the half-maximal activity concentration (AC50) under setting [1] is 14.6 µM [rising, single point].
`O=C(c1ccc2c(c1)OCO2)N1CCN=C1SCc1ccccc1`: the cell number change turned out to be 2.71%. Also, the concentration at half-maximal activity (AC50) under setting [1] is 4.61 µM [rising, partial curve, poor fit].
On to `O=C(c1cc(COc2cccc(C(F)(F)F)c2)on1)N1C[C@H]2CC[C@H]1C2`, for which the cell number change was -9.38%.
The same measure, in the same setting: with `COc1cccc(NC(=O)c2nn(C)c3c2CS(=O)(=O)c2ccccc2-3)c1` the figure was -6.6%.
